Test: Inner-filter effect: attenuation of free AMC fluorescence
Settings: for attenuation of fluorescence signal: inhibitor 10 µM, 10 µM AMC in assay buffer

Compound | attenuation of fluorescence signal [%] | fluorescence interference (inhibitor 500 µM) [%] | fluorescence interference (inhibitor 1000 µM) [%]
CC(C)C[C@H](NC(=O)[C@H](Cc1ccccc1)Nc1ccc([N+](=O)[O-])c([N+](=O)[O-])c1)C(=O)O [Compound 2] | 14 |  | 
CC(C)C[C@H](NC(=O)[C@H](Cc1ccccc1)Nc1cc(F)c([N+](=O)[O-])cc1[N+](=O)[O-])C(=O)O [Compound 3] | 11 |  | 
N-(5-fluoro-2,4-dinitrobenzoyl)-L-phenylalanyl-L-leucine [Compound 9] |  | 8 | 23

— publication PMC11173422, “Substitution-Induced Mechanistic Switching in SNAr-Warheads for Cysteine Proteases” (Molecules, 2024)
